In article PMC8034861 one finds binding data, which are given here for 1 substance.

Chains of the proteins cited; added tags and fusions are not shown.
UniProt P33176: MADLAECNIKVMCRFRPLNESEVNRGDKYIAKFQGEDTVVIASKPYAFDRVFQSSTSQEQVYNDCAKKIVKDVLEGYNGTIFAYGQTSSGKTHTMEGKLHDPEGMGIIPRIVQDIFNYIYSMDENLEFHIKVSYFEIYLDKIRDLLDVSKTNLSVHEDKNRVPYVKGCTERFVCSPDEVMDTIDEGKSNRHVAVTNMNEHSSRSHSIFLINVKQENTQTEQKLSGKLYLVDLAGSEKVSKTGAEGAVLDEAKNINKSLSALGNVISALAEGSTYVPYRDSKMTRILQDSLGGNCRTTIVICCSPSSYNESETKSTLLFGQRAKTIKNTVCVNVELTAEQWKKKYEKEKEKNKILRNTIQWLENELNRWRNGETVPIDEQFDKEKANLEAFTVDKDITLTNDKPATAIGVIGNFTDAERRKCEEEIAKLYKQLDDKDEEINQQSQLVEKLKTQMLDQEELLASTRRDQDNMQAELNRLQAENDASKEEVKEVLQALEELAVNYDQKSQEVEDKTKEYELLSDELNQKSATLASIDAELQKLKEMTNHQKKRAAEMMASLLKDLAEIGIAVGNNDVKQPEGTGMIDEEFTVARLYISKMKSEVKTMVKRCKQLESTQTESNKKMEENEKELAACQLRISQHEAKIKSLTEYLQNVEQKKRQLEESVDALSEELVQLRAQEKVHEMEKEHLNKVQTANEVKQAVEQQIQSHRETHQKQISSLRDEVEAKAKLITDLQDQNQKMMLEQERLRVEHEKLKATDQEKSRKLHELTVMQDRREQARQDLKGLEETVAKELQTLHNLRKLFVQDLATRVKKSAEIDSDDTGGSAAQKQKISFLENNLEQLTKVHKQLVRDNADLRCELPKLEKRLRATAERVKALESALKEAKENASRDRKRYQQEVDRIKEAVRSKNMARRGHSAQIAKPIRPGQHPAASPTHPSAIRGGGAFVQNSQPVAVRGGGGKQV

Test [1] has as its target T1, PR20 peptide as used in the proximity ligation assay (human).
T1 sequence (peptide): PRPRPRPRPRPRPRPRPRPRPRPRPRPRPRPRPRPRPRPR
Description: proximity ligation; Duolink PLA in fixed human sMNs exposed to PR20; signals in cell body and processes; only the target purified.

Test [2] addresses T2, hemagglutinin (HA)-tagged GP20 peptide (human).
T2 sequence (peptide): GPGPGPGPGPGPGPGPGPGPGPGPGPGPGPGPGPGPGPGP
Description: co-IP; human iPSC-derived sMNs treated with 10 μM HA-labeled peptide for 3 hours, cross-linked with 1% paraformaldehyde, lysed (150 mM NaCl, 25 mM tris, 1 mM EDTA, 1% NP-40, 5% glycerol, pH 7.4); anti-HA magnetic beads, 1 hour at room temperature; immunoblot; only the target purified.

In test [3] the target is T3, hemagglutinin (HA)-tagged GR20 peptide (human).
T3 sequence (peptide): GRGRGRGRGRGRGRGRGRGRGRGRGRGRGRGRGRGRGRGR
The description is as above.

For test [4], the target named is T4, hemagglutinin (HA)-tagged PR20 peptide (human).
T4 sequence (peptide): T1 sequence (peptide)
The test is described as above.

No constants are given. Whether binding was seen depends on the method and setting. In cells and extracts the contact can be indirect. Some entries that bind do so weakly or less than the wild type. For some of these results: Where a sequence is shown, tags or fusion partners need not be part of it.

Regarding “KIF5B (kinesin-1), endogenous in human iPSC-derived spinal motor neurons (from UniProt P33176 1-963)”, the binding entry is “binds” in test [1], “no binding (tested: 10 μM peptide in the medium)” in test [2], “binds” in test [3] and “binds” in test [4].
